{"source": "PubChem BioAssay AID1259308 (NCATS, 2017)", "purpose": "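Knock-downs that increase output of a recombinant reporter protein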 (primary screen)", "system": "human HEK293 embryonic kidney cells stably expressing firefly luciferase (HEK-CMV-Luc2-Hygro)", "knock-down reagent": "single siRNA against human genes, 0.8 pmol siRNA per well", "timing": "72 h", "detection": "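Luciferase light (ONE-Glo) measured on one replicate plate set and viability (CellTiter-Glo) on the other, scaled to a negative control siRNA, with robust z-scores and luciferase per cell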", "reading the numbers": "total luciferase, z-score and total luciferase, % of control: higher = more reporter protein produced", "hit rule": "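Active when the median/MAD z-score for overall luciferase is greater than 3; a gene was taken forward for validation with new siRNAs if at least two of its three siRNAs passed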", "calls": "active = raised luciferase; inactive = no rise", "note": "This is an unselected part of about 59,000 deposited reagents. About 1,510 of all reagents (2.6%) were called active. 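Calls use total luciferase alone and ignore viability, so some active siRNAs may act by altering cell number.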 A number with no mark means an inactive call. The numbers tell different reagents against one gene apart. Not all columns of the deposit are shown. No sequences are given here."}
{"gene": "PIAS1", "reagent": 1, "total luciferase, z-score": -0.55, "total luciferase, % of control": 70.9}
{"gene": "PIAS1", "reagent": 2, "total luciferase, z-score": 0.217, "total luciferase, % of control": 86.2}
{"gene": "PIAS1", "reagent": 3, "total luciferase, z-score": 0.249, "total luciferase, % of control": 86.8}
{"gene": "SLC67A2", "reagent": 1, "total luciferase, z-score": 0.911, "total luciferase, % of control": 100}
{"gene": "SLC67A2", "reagent": 2, "total luciferase, z-score": 2.39, "total luciferase, % of control": 129}
{"gene": "SLC67A2", "reagent": 3, "total luciferase, z-score": -0.955, "total luciferase, % of control": 62.9}

Only “total luciferase, z-score”, for 2 of the entries above:
PIAS1 #1	-0.55
PIAS1 #2	0.217

The listing continues.
{"gene": "SLC38A8", "reagent": 1, "total luciferase, z-score": 0.0338, "total luciferase, % of control": 82.6}
{"gene": "SLC38A8", "reagent": 2, "total luciferase, z-score": 2.83, "total luciferase, % of control": 138}
{"gene": "SLC38A8", "reagent": 3, "total luciferase, z-score": 0.614, "total luciferase, % of control": 94.1}
{"gene": "AQP12A", "reagent": 1, "total luciferase, z-score": -0.139, "total luciferase, % of control": 79.1}
{"gene": "AQP12A", "reagent": 2, "total luciferase, z-score": 0.0662, "total luciferase, % of control": 83.2}
{"gene": "AQP12A", "reagent": 3, "total luciferase, z-score": 0.822, "total luciferase, % of control": 98.2}
